In PubChem BioAssay AID504834 (National Center for Advancing Translational Sciences (NCATS), 2011):
Out of some 320,000 compounds screened, about 22,000 (6.9%) were called active. The inconclusive results got no clear call from the source; some entries with a clear call stand among them for comparison. Calls follow the shape of the dose curve; as a rule, active = well fitted inhibition curve with a large enough effect; inconclusive = small, poorly fitted or top-dose-only effect, or another doubt; inactive = no such curve, though single readings can be large or run the other way. Potencies of inconclusive entries are doubtful fits and often do not repeat.
% is scaled to controls: 0 for no effect and ±100 for the full control effect; potency is read from the fitted curve at half-maximal effect.

Assay: Primary qHTS for delayed death inhibitors of the malarial parasite plastid, 96 hour incubation
Settings: P. falciparum luciferase reporter growth; series mostly up to 28.7 µM; activity change, negative = inhibition: at the top concentration
Summary of the method: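 P. falciparum expressing integrated firefly luciferase grown in erythrocytes (2% hematocrit, 0.05% parasitemia final) with compounds for 96 hours at 37 C, 5% CO2. Growth inhibition read as loss of luminescence after adding luciferase detection reagent.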
With `O=C(NCc1ccc2c(c1)OCO2)Nc1ccc([N+](=O)[O-])cc1` the Potency was inconclusive: 18.5 µM [inhibitor, single point].
For `COc1cccc(/C=C/c2nc(S(=O)(=O)c3ccccc3)c(N(C)C)o2)c1`, the Potency was inconclusive: 13.1 µM [inhibitor, single point].
In the case of `Cc1ccc(C)c(S(=O)(=O)N2CCN(CC(=O)Nc3sccc3C#N)CC2)c1`, the Potency is reported as inconclusive: 8.28 µM [inhibitor, partial curve, poor fit].
For `CC1CCCC(NC(=O)c2ccc3c(=O)n(CC4CCCO4)c(=O)[nH]c3c2)C1C` (stereo not given), the Potency was inconclusive: 13.1 µM [inhibitor, single point].
In the case of `O=C(c1ccccc1)N1N=C(c2ccccc2)CC1c1ccc2nccnc2c1` (stereo not given), the Potency is reported as inconclusive: 18.5 µM [inhibitor, single point].
With `CC(C)(C)Nc1scc(-c2ccccc2)[n+]1-c1ccccc1` the Potency was inconclusive: 10.4 µM [inhibitor, single point].
With `COCCNC(=O)Cn1cc(S(=O)(=O)N2CCN(c3ccccc3F)CC2)c2ccccc2c1=O` the “activity change, negative = inhibition” value was inactive: 390%.
For `CC1c2cc3c(cc2CCN1C(=O)c1cccc(F)c1)OCCCO3` (stereo not given), the Potency was inconclusive: 18.5 µM [inhibitor, single point].
With `COc1cccc(-n2nnnc2SCC(=O)NCc2ccco2)c1` the Potency was inconclusive: 10.4 µM [inhibitor, single point].
For `COc1cc(/C=C\C(=O)O)cc(S(=O)(=O)N2CCCCCC2)c1OC`, the Potency was inconclusive: 16.5 µM [inhibitor, partial curve, poor fit].
For `C=CC[n+]1c(-c2ccc(OCC)cc2)csc1NNC(=O)Nc1ccccc1`, the Potency was inconclusive: 14.7 µM [inhibitor, partial curve, poor fit].
For `O=C(NCc1ccccn1)c1ccco1`, the activity change, negative = inhibition was inactive: -90.4% [at 5.75 µM].
In the case of `COCCNC(=O)C1CCC(CNS(=O)(=O)c2ccc(F)cc2)CC1` (stereo not given), the Potency is reported as inconclusive: 14.7 µM [inhibitor, single point].
For `Nc1nnc(SCc2cc3c(cc2Cl)OCO3)s1`, the Potency was inconclusive: 2.94 µM [inhibitor, partial curve, poor fit].
For `CCOc1ccccc1N1C(=O)NC(=O)/C(=C/c2ccc3c4c(cccc24)CC3)C1=O`, the Potency was inconclusive: 11.7 µM [inhibitor, single point].
With `O=C(CSc1nnc2ccccn12)NC(=O)NC1CCCC1` the Potency was inconclusive: 11.7 µM [inhibitor, partial curve].
In the case of `CN1C(=O)CC(C(=O)Nc2ccccc2F)SC1=Nc1ccc2c(c1)OCO2` (stereo not given), the “activity change, negative = inhibition” value is reported as inactive: 26.7%.
In the case of `CC1CCN(S(=O)(=O)c2ccc(C(=O)Nc3nnc(C4=COCCO4)o3)cc2)CC1`, the Potency is reported as inconclusive: 11.7 µM [inhibitor, partial curve, poor fit].
With `CS(=O)(=O)N1CCN(C(=O)Cc2ccccc2Cl)CC1` the Potency was inconclusive: 2.62 µM [inhibitor, partial curve, poor fit].
With `CCOC(=O)c1c(-c2ccc(OCC)cc2)csc1NC(=O)CCN1C(=O)c2ccccc2C1=O` the Potency was inconclusive: 0.928 µM [inhibitor, partial curve, poor fit].
With `Cc1ccc(C(=O)N(c2ccccn2)C(C)c2ccco2)cc1C` (stereo not given) the Potency was inconclusive: 0.104 µM [inhibitor, full curve, poor fit].
With `CCN1C(=O)[C@@H]2Cc3c([nH]c4ccccc34)C(c3cc(OC)c(OC)c(OC)c3)N2C1=S` (stereo not given in full) the Potency was inconclusive: 10.4 µM [inhibitor, partial curve, poor fit].
In the case of `NC(=O)CC(NC(=O)Cc1ccc(Br)cc1)c1ccc(NCC2CC2)c([N+](=O)[O-])c1` (stereo not given), the “activity change, negative = inhibition” value is reported as inactive: 35.6%.
In the case of `O=C1CSC(=Nc2ccccc2[N+](=O)[O-])N1`, the Potency is reported as inconclusive: 2.94 µM [inhibitor, partial curve].
With `COc1ccc(/C=N/NC(=O)CNC(=O)COc2ccccc2)cc1` the “activity change, negative = inhibition” value was inactive: -20.9%.
With `O=C(/C=C/c1ccccc1)Nn1cnnc1` the Potency was active: 14.7 µM.
For `C=CCOC(=O)C1CC=CCC1C(=O)Oc1ccc(F)cc1F` (stereo not given), the “activity change, negative = inhibition” value was inactive: 15.3%.
In the case of `Cc1ccc(NC(=O)C2CCCN(S(=O)(=O)c3ccc4[nH]c(=O)ccc4c3)C2)c(C)c1` (stereo not given), the Potency is reported as inconclusive: 13.1 µM [inhibitor, single point].
With `O=C(COC(=O)CNC(=O)c1sc2ccccc2c1Cl)Nc1c(Cl)cc(Cl)cc1Cl` the “activity change, negative = inhibition” value was inactive: -10.1%.
In the case of `CC(=O)c1c(C)n(-c2ccc(Br)cc2)c2ccc(O)cc12`, the Potency is reported as inconclusive: 11.7 µM [inhibitor, single point].
In the case of `COc1ccc(N2CC(C(=O)N(C)CC(=O)Nc3ccc(Cl)c(C(F)(F)F)c3)CC2=O)c(OC)c1` (stereo not given), the Potency is reported as active: 13.1 µM.
In the case of `COc1ccc(OC)c(S(=O)(=O)NCc2nc3nc(C)cc(C)n3n2)c1`, the Potency is reported as active: 13.1 µM.
With `Cc1ccc(N2C(=O)C(Cl)=C(Nc3c(C)n(C)n(-c4ccccc4)c3=O)C2=O)cc1` the Potency was inconclusive: 3.29 µM [inhibitor, partial curve, poor fit].
With `COc1ccc(F)cc1CN1CCN(C(=O)CCC(=O)Nc2nnc(C(C)C)s2)CC1` the Potency was inconclusive: 13.1 µM [inhibitor, partial curve, poor fit].
For `O=C(CSc1ncnc2ccccc12)NCC(=O)c1ccccc1`, the Potency was inconclusive: 5.86 µM [inhibitor, partial curve, poor fit].
In the case of `CC(C)(C)c1nnc(NC(=O)C2CC(=O)N(CCc3ccc(F)cc3)C2)s1` (stereo not given), the “activity change, negative = inhibition” value is reported as inactive: -0.0038%.
In the case of `O=C(COC(=O)c1cncc(Br)c1)NCc1ccc(F)cc1`, the “activity change, negative = inhibition” value is reported as inactive: 16.3%.
For `O=C(Cn1nnc(-c2ccc(Cl)cc2)n1)NCC1CCCCC1`, the “activity change, negative = inhibition” value was inactive: 0.0974%.
In the case of `CCC(=O)Nc1nc2ccc(NC(=O)c3cc(OC)c(OC)c(OC)c3)cc2s1`, the “activity change, negative = inhibition” value is reported as inactive: 23.2%.
With `CC1C(=O)C(C)(C)C(=O)OC1c1ccc([N+](=O)[O-])cc1` (stereo not given) the “activity change, negative = inhibition” value was inactive: 12.9%.
For `Fc1ccc(Nc2nc(N3CCOCC3)nc(N3CCOCC3)n2)cc1Cl`, the Potency was active: 13.1 µM.
In the case of `O=C(O)c1cc(S(=O)(=O)N2CCOCC2)c(Sc2ccccn2)cc1Sc1ccccn1`, the Potency is reported as inconclusive: 9.28 µM [inhibitor, partial curve, poor fit].
For `C=CCOc1nc2c(c(=O)n(Cc3ccc(Cl)cc3)c(=O)n2C)n1C`, the “activity change, negative = inhibition” value was inactive: -8.84%.
For `Cc1ccc(CSc2nc3c(cc2C#N)CCC3)cc1`, the Potency was inconclusive: 1.04 µM [inhibitor, full curve].
With `COc1cccc(/C=N/Nc2ncnc3scc(-c4ccccc4)c23)c1O` the Potency was active: 2.33 µM.
In the case of `Cc1ccccc1CSc1nnnn1-c1ccc(C(N)=O)cc1`, the “activity change, negative = inhibition” value is reported as inactive: 29.3%.
For `Cc1ccc(S(=O)(=O)c2nc(S(C)(=O)=O)sc2NCc2ccc3c(c2)OCO3)cc1`, the Potency was inconclusive: 14.7 µM [inhibitor, partial curve, poor fit].
With `CC(C)CC(=O)NC(=S)NNC(=O)c1cccc([N+](=O)[O-])c1` the Potency was inconclusive: 9.28 µM [inhibitor, partial curve].
In the case of `OCCCCNCc1ccc(OCc2ccccc2Cl)cc1`, the Potency is reported as inconclusive: 18.5 µM [inhibitor, single point].
For `CCCCNc1ncnc2c1cnn2-c1ccc(C)cc1C`, the Potency was inconclusive: 10.4 µM [inhibitor, single point].
In the case of `CCn1nc(C)cc1C(=O)N1CCCC(C(=O)c2ccccc2SC)C1` (stereo not given), the “activity change, negative = inhibition” value is reported as inactive: 0%.
With `CCN(CC)Cc1c(O)ccc2occ(C(=O)c3ccccc3)c12` the Potency was inconclusive: 18.5 µM [inhibitor, single point].
In the case of `CCN1CN(Cc2ccccc2)CNC1=S`, the Potency is reported as inconclusive: 18.5 µM [inhibitor, single point].
For `Cc1nc2ccc(S(=O)(=O)NC(C(=O)N3CCCCCC3)C(C)C)cc2s1` (stereo not given), the “activity change, negative = inhibition” value was inactive: -2.11%.
With `Cc1cc(OC(C)C(=O)NCc2cccnc2)c2c3c(c(=O)oc2c1)CCC3` (stereo not given) the Potency was active: 10.4 µM.
For `COC(=O)c1cc(Nc2cc(C)c3ccc(O)cc3n2)cc(C(=O)OC)c1`, the Potency was inconclusive: 1.65 µM [inhibitor, full curve].
With `N/C(=N\OS(=O)(=O)c1ccc(Br)cc1)c1ccncc1` the Potency was inconclusive: 18.5 µM [inhibitor, single point].
In the case of `CCOC(=O)c1sc(NC(=O)c2c(CC)noc2C)nc1C`, the Potency is reported as inconclusive: 18.5 µM [inhibitor, single point].
In the case of `COc1ccc(C2(c3ccc(OC)cc3)NC(=O)N(CC(=O)N(C)C3CCC(C)CC3)C2=O)cc1` (stereo not given), the Potency is reported as inconclusive: 18.5 µM [inhibitor, single point].
With `CCn1c(/C=C/c2ccccc2C)nc2ccccc2c1=O` the “activity change, negative = inhibition” value was inactive: -14.7%.
For `CCOC(=O)c1ncn2c1C(=O)OC2(C)C`, the Potency was inconclusive: 11.7 µM [inhibitor, single point].
For `NC(=O)C1CCN(C(=S)NCc2ccc3c(c2)OCO3)CC1`, the Potency was inconclusive: 3.7 µM [inhibitor, partial curve, poor fit].
With `O=C(NNC(=O)c1ccccc1Br)c1cccs1` the “activity change, negative = inhibition” value was inactive: 6.2%.
In the case of `Cc1cc(NCc2ccccn2)nc2ccccc12`, the Potency is reported as inconclusive: 14.7 µM [inhibitor, partial curve, poor fit].
In the case of `O=C(O)c1cccc(CSc2nnc(-c3ccc(Cl)cc3)o2)c1`, the Potency is reported as inconclusive: 11.7 µM [inhibitor, partial curve].
For `O=C1CSC(c2cccc(O)c2)N1Cc1ccccc1` (stereo not given), the “activity change, negative = inhibition” value was inactive: 0.0217%.
For `Cc1ccc(C(C(=O)NCC2CCCO2)N(C(=O)c2snc(C(N)=O)c2N)c2ccccc2F)o1` (stereo not given), the “activity change, negative = inhibition” value was inactive: -28.3%.
In the case of `CC(=O)Nc1ccc(S(=O)(=O)NCc2nc(-c3ccc(C)cc3)no2)cc1`, the Potency is reported as inconclusive: 11.7 µM [inhibitor, single point].
In the case of `Clc1ccc(/C=N/N2CCN(Cc3ccccc3Cl)CC2)cc1`, the “activity change, negative = inhibition” value is reported as inactive: 0.773%.
In the case of `CN(C)CCNC(=O)CCCNC(=O)Cn1cnc2sc3c(c2c1=O)CCCC3`, the Potency is reported as inconclusive: 18.5 µM [inhibitor, single point].
